Measurements as given in patent publication US12644083B2, “Dual circulation microphysiological system” (CN Bio Innovations Limited, priority 2019, dated 2026).
Some entries share one result that the patent states for a list of compounds.

Tested on: primary human hepatocytes
Assay: double loop (dual circulation) microphysiological system, drug metabolism test phase
Assay type: in vitro ADME
Settings: second circulation ~200 μL, ~600 k cells

For `CC(C)N(CCC(C(N)=O)(c1ccccc1)c1ccccn1)C(C)C` (stereo not shown) [disopyramide], the “predicted test phase to measure metabolism” value was “less than 1 day”.
